# Results are given in words; binding and its absence hold for the method and conditions named. In cells and extracts the contact can be indirect. Some results given as binding are weak or reduced against the parent protein; the word gives no strength.
# By UniProt entry, the sequences of proteins in these tests, tags left out.
# UniProt Q64264: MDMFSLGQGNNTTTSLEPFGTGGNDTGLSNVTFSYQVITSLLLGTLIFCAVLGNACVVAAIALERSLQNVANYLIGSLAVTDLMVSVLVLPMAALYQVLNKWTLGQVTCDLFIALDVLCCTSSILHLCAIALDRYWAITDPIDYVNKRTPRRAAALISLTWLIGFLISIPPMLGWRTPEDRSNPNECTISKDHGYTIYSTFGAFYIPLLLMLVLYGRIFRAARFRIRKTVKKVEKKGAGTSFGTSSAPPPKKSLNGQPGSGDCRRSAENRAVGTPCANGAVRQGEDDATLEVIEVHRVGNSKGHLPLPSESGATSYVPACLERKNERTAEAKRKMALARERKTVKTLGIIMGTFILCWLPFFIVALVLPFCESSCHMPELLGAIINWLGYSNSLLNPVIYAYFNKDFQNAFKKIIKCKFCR
# UniProt P35363: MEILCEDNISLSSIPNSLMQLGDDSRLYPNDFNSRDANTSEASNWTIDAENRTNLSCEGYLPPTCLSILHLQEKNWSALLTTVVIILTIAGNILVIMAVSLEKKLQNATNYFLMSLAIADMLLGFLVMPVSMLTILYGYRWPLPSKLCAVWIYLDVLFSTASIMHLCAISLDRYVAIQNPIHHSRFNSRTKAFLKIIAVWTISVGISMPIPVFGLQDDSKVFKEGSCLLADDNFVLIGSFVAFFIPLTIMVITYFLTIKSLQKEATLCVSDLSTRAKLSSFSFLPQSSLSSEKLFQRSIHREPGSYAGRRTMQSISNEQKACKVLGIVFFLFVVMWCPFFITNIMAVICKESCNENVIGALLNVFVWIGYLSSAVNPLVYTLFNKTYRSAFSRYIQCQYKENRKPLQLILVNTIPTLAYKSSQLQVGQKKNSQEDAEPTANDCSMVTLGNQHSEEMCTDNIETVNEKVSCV
# Biological target: serotonin 5-HT1A receptor (mouse (endogenous in C57Bl/6J brain and mouse cortex neurons)) (UniProt Q64264)
# Assay: proximity ligation; Duolink in situ PLA on 5 um coronal mouse brain sections (prefrontal and frontal cortex); primary antibodies 1:100; fluorescent spots counted; mice treated acutely or sub-chronically with saline, ketamine, clozapine (0.3 or 1 mg/kg) or haloperidol (0.1 mg/kg)
substance,measurement,value
serotonin 5-HT2A receptor (from UniProt P35363 1-471),binding,binds
